Measured values published in PubChem BioAssay AID1347426 (Functional Genomics Laboratory (NCATS/FGL), 2020).
Screen size: about 31,000 sequences; about 1,400 (4.5%) were called active.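 Rule for the calls: active = median seed-adjusted z-score above 1 or below -1; inactive = the rest.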 The list shows a part of the results.

Assay: Novel Modifiers of Survival Motor Neuron (SMN) Protein: Gene Identification via Genome-wide siRNA Screen;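 note: luminescence tracks full-length SMN protein made from the SMN2 reporter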
Settings: HEK293T SMN2-luciferase reporter, siRNA knockdown, 72 h; actives lie on both sides
Method in brief: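 Steps: spot 1 pmol siRNA, add Lipofectamine RNAiMax in serum-free DMEM, seed HEK293T SMN2–luciferase reporter cells; incubate 72 h at 37 °C; add ONE-Glo; normalize luminescence to control siRNA, log10, MAD. Candidates: |MAD| > 1.0.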
With CGAGUCAACUGAUUGUGGATT against YKT6 the median seed-adjusted z-score was inactive: -0.065. With GUUAUGCCUUUAUUAAUUUTT against SF3B4 the median seed-adjusted z-score was active: -2.56. With GGAGGAGGCUACUACCACUTT against NDUFS7 the median seed-adjusted z-score was inactive: -0.386. In the case of GCCCUCCUAUGAAAACGCATT against ZNF77, the median seed-adjusted z-score was inactive: 0.345. In the case of GAAUCUUAAUAUUCGAAGUTT against XIAP, the median seed-adjusted z-score was inactive: -0.0329. In the case of GAGUUUGAUGUUUCCGGAATT against ZNF407, the median seed-adjusted z-score was inactive: 0.00802. With CCCUGAUGUUAUAACGAAATT against GLT6D1 the median seed-adjusted z-score was inactive: 0.145. With GGCUCGUAUCAACACCUAUTT against SATB1 the median seed-adjusted z-score was inactive: 0. With AGAUCCUGAUGUUACGCAUTT against PHKG2 the median seed-adjusted z-score was inactive: -0.371. For CGCUGUAGUUUACAAUGCATT against KLHL12, the median seed-adjusted z-score was inactive: -0.0991. In the case of GAUGAUGUCUGAAGACCGATT against GFPT2, the median seed-adjusted z-score was inactive: 0.412. For GCAUUAUCCACGAGGCAAATT against ATP6V1H, the median seed-adjusted z-score was inactive: 0.146. With CCCUUUUCUUUAUCCCUGATT against IL9R the median seed-adjusted z-score was active: -1.33. In the case of CCAUCCAGUUUUUCCAGAATT against MRAS, the median seed-adjusted z-score was inactive: 0.032. In the case of GGACAACAGGAGUCAGGUATT against AQP4, the median seed-adjusted z-score was inactive: -0.361. In the case of GGAUUUCUACCGCUCCACGTT against MYCL1, the median seed-adjusted z-score was inactive: 0.0658. For GCAGAGCUGGAAUCCAGGATT against KRT40, the median seed-adjusted z-score was inactive: -0.324. In the case of GGAAGAGGAGUAGACCUUATT against RAB5A, the median seed-adjusted z-score was inactive: 0.244. For CAUCACUGCGAUUUCCUGATT against 1-Sep, the median seed-adjusted z-score was inactive: 0.0103. With CCACUAAAGUGUCCUACCATT against GCM2 the median seed-adjusted z-score was inactive: -0.241. With CCACUCUCAUCAAAUCCGATT against MLL2 the median seed-adjusted z-score was active: -2.11. With AAGUUCAGUUUUGACAUCATT against RTN4RL1 the median seed-adjusted z-score was inactive: -0.537. With GAAGUACCCUUACAUACCATT against PKP4 the median seed-adjusted z-score was inactive: 0.368. In the case of GCUUCGGUAUAAUAGGUCUTT against PUM2, the median seed-adjusted z-score was inactive: -0.129. In the case of AUAUUUUAAAGGACCAGAATT against IL12B, the median seed-adjusted z-score was inactive: 0.409. In the case of GCAGAAGCCUGGAACUCUATT against RNASET2, the median seed-adjusted z-score was inactive: -0.126. With CAGAAUCGCUUCUACAAGATT against SPAG6 the median seed-adjusted z-score was inactive: -0.439. For GCUACAUCCUGUUCGAGAATT against CYP27A1, the median seed-adjusted z-score was inactive: -0.391. In the case of AGACAAUGGAAAUCCCAAATT against LRP2BP, the median seed-adjusted z-score was inactive: -0.547. With CACUCAACAUUACAGAUUUTT against ZNF514 the median seed-adjusted z-score was inactive: 0.125. In the case of CCUACGUUACUUUCCCUCATT against FOXD4L6, the median seed-adjusted z-score was inactive: -0.137. In the case of CCUUGACUGUGGACAACAATT against PURA, the median seed-adjusted z-score was inactive: -0.0185. In the case of GUGAAAUCCAUGUUUCAUATT against SMYD1, the median seed-adjusted z-score was inactive: -0.0827. For GGACUAUGCAAAGAAUCUATT against RPS6KB1, the median seed-adjusted z-score was active: 1.4. In the case of GUCUCGAUGGAGCAAAGUATT against TCERG1, the median seed-adjusted z-score was inactive: 0.415. For AGGUUUUUAUCGACACUAUTT against CHRNA1, the median seed-adjusted z-score was inactive: -0.32. With GGAAAUCUGAAGACGAUAATT against CCAR1 the median seed-adjusted z-score was active: -1.18. In the case of GACUAUCCAAGGGAACAUUTT against ESRRB, the median seed-adjusted z-score was inactive: -0.611. In the case of CGAGAAUAAGUCCAAGUUUTT against ENO3, the median seed-adjusted z-score was inactive: -0.142. In the case of CACUGGAACUCUACCAUCATT against MYBL2, the median seed-adjusted z-score was inactive: 0.592. In the case of GGAAGUCUACGGGACCGAATT against LTF, the median seed-adjusted z-score was inactive: 0.236. With GGAGGACUAUGUGCUUAGATT against 5-Mar the median seed-adjusted z-score was inactive: 0. With GGAGUUAUUUGAACGGCAATT against INO80 the median seed-adjusted z-score was inactive: 0.0546. In the case of CCACCAUACUAAUACCCUATT against AKAP11, the median seed-adjusted z-score was inactive: -0.0405. With GGAUGAAGUUAUCGAAAGATT against ALDH1A2 the median seed-adjusted z-score was inactive: 0.564. With GGUCUGAUCCAACUUCGUATT against ATP1B3 the median seed-adjusted z-score was inactive: -0.225. With GGAAAGCAAUUCCUAGAAATT against PDC the median seed-adjusted z-score was inactive: -0.541. With GGCGAUACCUGGUCAUUGATT against SMARCA1 the median seed-adjusted z-score was inactive: 0.6. In the case of GCUCCAAAUGGAGAGUGUATT against PRKCDBP, the median seed-adjusted z-score was inactive: 0.244. For AGCUUCUUCUCGAUACUUUTT against SLC16A11, the median seed-adjusted z-score was inactive: -0.396. For CCGAGAGUAUGUCGACUUATT against CBFB, the median seed-adjusted z-score was inactive: -0.0379. For GCAGAUCAAGUUCGAGAAATT against AURKAIP1, the median seed-adjusted z-score was inactive: 0.067. For GCAAUAUCAGAUGCACAGATT against F8, the median seed-adjusted z-score was inactive: -0.0992. For CUCUGUCUCUAAUCGACAATT against UTY, the median seed-adjusted z-score was inactive: -0.538. In the case of GGAAACAACUUUUAUGAAUTT against GCHFR, the median seed-adjusted z-score was inactive: -0.559. With GAGCUUAACUACUUAGGGATT against DHRS7 the median seed-adjusted z-score was inactive: 0.255. With CAUUCAUCCAUCUCACAUATT against CLSTN2 the median seed-adjusted z-score was inactive: 0. With GCAUCGCUGUUACCCAUCUTT against CCRN4L the median seed-adjusted z-score was inactive: -0.572. In the case of CAGUGUUCCUAUUAGAUGATT against LONP2, the median seed-adjusted z-score was active: 1.52. With AGAGCUAGAUGGAAGAACATT against SFRS3 the median seed-adjusted z-score was active: 2.74. In the case of GGCACAGAUAGAUCGAUUUTT against RANBP9, the median seed-adjusted z-score was inactive: -0.467. With GCAGGAUUGUGAUCCACCATT against PCGF3 the median seed-adjusted z-score was inactive: 0.876. With CCAUAUUUGCACUAAAGGATT against PCTK1 the median seed-adjusted z-score was inactive: -0.729. In the case of CCGUGGAGCUAAACAAUAUTT against MASP1, the median seed-adjusted z-score was inactive: 0.653. In the case of GGAGUUCCAUAGCUGUCAATT against ADRA1B, the median seed-adjusted z-score was inactive: -0.472. For GGAUGGAGGACUAUGACUATT against BCAR1, the median seed-adjusted z-score was inactive: -0.469. With GGAACUCAUUGACCGCUAUTT against PLCD4 the median seed-adjusted z-score was inactive: -0.4. For GCAUCAUCGGUACCCAGUUTT against MPO, the median seed-adjusted z-score was inactive: -0.223. With GAGUUUAAUCUGAUUGAUATT against MOBKL1B the median seed-adjusted z-score was inactive: 0.31. With UCAACACCCAGGAAGCAUATT against TNK1 the median seed-adjusted z-score was inactive: -0.727. For CUUAUCCACUCAUCACUAATT against RBM25, the median seed-adjusted z-score was inactive: -0.265. In the case of GGUGGGUGAUUAUCUCUAUTT against KCNG3, the median seed-adjusted z-score was inactive: 0.0832. For CCAAUAUUGCAGACUUGGATT against MBOAT7, the median seed-adjusted z-score was inactive: 0.314. For GGAAGCUAUUGCAGACUUATT against PRDM13, the median seed-adjusted z-score was inactive: 0. With CCUCAUGUAUACUUACUUATT against HSD17B2 the median seed-adjusted z-score was inactive: 0.521. For CCCUGUUGCUAUCAAGUAUTT against AGPAT6, the median seed-adjusted z-score was inactive: 0. In the case of UCAAGAUGCUCAAAGACAATT against FGFR4, the median seed-adjusted z-score was inactive: 0.0825. In the case of AUGUCACGCUGGUGCCCUATT against IFI30, the median seed-adjusted z-score was inactive: 0.401. With UCCCUUACAUGUCACCAAATT against ZMIZ2 the median seed-adjusted z-score was inactive: -0.27. For GGCUUACUAUGCUUUUAAATT against CIB3, the median seed-adjusted z-score was inactive: 0.234. With UGGUCAAGGCAGAACAGAATT against TNNT1 the median seed-adjusted z-score was inactive: 0. With CCUACUCAUUUGACAUAGATT against ATP12A the median seed-adjusted z-score was inactive: -0.0941. For GAAGAGCUUUGAGAAUGAUTT against INPPL1, the median seed-adjusted z-score was inactive: 0.199. For AAAGAAUGCGUGCUUUUAATT against RABGGTA, the median seed-adjusted z-score was inactive: -0.0601. For GGACAGUAGUUUAACUGAUTT against NEK1, the median seed-adjusted z-score was inactive: 0.296. With GCAUCUACAUGACCAACCUTT against GPR35 the median seed-adjusted z-score was active: -1.46. With CAACAUAUCUUGCUACGAATT against IFNGR2 the median seed-adjusted z-score was inactive: 0.148. In the case of GUGAUUCACAGAGAUAUUATT against AURKC, the median seed-adjusted z-score was inactive: -0.0275. For GGUUAUAGCUUCAAGGUGATT against ERCC3, the median seed-adjusted z-score was inactive: 0.155. With GAACUAUGACAAGACAAAATT against 4-Mar the median seed-adjusted z-score was inactive: 0.168. In the case of GGAACUUUCUGAAUUACGUTT against SLC7A8, the median seed-adjusted z-score was inactive: -0.134. With GACUUUGACCGACUCCGCATT against EPN1 the median seed-adjusted z-score was inactive: 0. In the case of GCUAAGAGGUCUGUCCUAATT against CACNB4, the median seed-adjusted z-score was inactive: -0.223. In the case of GGGUCAUCUAUAUCCGCAATT against GPR132, the median seed-adjusted z-score was inactive: 0. In the case of GGUUCAGUAUAGACGACGATT against FAT3, the median seed-adjusted z-score was inactive: 0.246. In the case of GAGUAAACCUCCAAAGAAATT against PDE6H, the median seed-adjusted z-score was inactive: -0.0647. For GAGUGUACCUGGAAUGUCUTT against ARNTL2, the median seed-adjusted z-score was inactive: 0.102. With CCACUAGCACAUUCCGCAATT against RBP2 the median seed-adjusted z-score was inactive: 0.0132. For CCACAGACCGGUAUAUUCATT against MTA2, the median seed-adjusted z-score was inactive: 0.947. For GGAUCAACUGGACAGCAAATT against CDC6, the median seed-adjusted z-score was inactive: 0.0196. In the case of GAAAGAUUGUACCAGUUGATT against CMPK1, the median seed-adjusted z-score was inactive: -0.363. With GGAGAAGAGUCAGAACAAATT against PSTPIP1 the median seed-adjusted z-score was inactive: -0.342. In the case of CCGUCAUUGUCAACCGGAATT against SLC4A5, the median seed-adjusted z-score was active: 1.3. In the case of CCUUCAGUCGAUCCACUUATT against ZNF627, the median seed-adjusted z-score was inactive: 0.204. With GGCCUACUAUUCAACGGUATT against PANK4 the median seed-adjusted z-score was inactive: 0.00068. With GAUGUAUUCAGAUACGUGATT against ARHGAP5 the median seed-adjusted z-score was inactive: -0.359. For CCUUUGACACCAACAGCGATT against HPCA, the median seed-adjusted z-score was inactive: 0.12. With CAACUUCCACUGUUUCCGATT against RRAGC the median seed-adjusted z-score was inactive: -0.557.
